Each number is a percent effect as filed. The controls that fix the scale are not given in the record; negative values are as filed. Compounds were drawn at random from those tested, without regard to their results. Two or more numbers in one place are separate tests of the same structure; such repeats can differ widely.

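Viability assay of Plasmodium falciparum sporozoites; the read-out is not stated. The concentration is filed as 10 mM, unlikely as a test dose, so the dose is not known. The record gives no direction; compounds that gave an IC50 in retests scored well above the rest, so higher reads as lower viability. Strong results were mostly tested again. Of about 34,000 compounds tested this way, about 280 (0.84%) reached 50% or more in at least one test.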

{"structure": "O=C(Nc1cc(C(F)(F)F)c[nH]c1=O)c1ccco1", "effect": 2.852}
{"structure": "N#Cc1cn(C2CC2)c(=O)n(Cc2cc(-c3cccs3)on2)c1=O", "effect": 9.434}
{"structure": "COc1cccc(C(NCc2ccc(SC)cc2)c2nccn2C)c1", "stereo": "stereo unspecified", "effect": 1.519}
{"structure": "Cn1ccc(C(=O)N2CCCC2c2ccc3c(c2)OCCO3)cc1=O", "stereo": "stereo unspecified", "effect": -3.669}
{"structure": "CNC(=O)c1ccc(C(=O)N2CCCCC2Cn2cc(C)cn2)cn1", "stereo": "stereo unspecified", "effect": -4.005}
{"structure": "Cc1cnn(C2CCCN(C(=O)Cc3ccc(C)s3)C2)c1", "stereo": "stereo unspecified", "effect": 7.18}
{"structure": "O=C(Cc1ccsc1)N1CCC(n2nc(-c3ccco3)ccc2=O)CC1", "effect": -11.97}
{"structure": "COc1ccc(C(=O)CCc2nc(C3CC3)no2)cc1", "effect": "-4.284 & -3"}
{"structure": "CC(NC(=O)NCCCOC1CCCCC1)c1nncn1C", "stereo": "stereo unspecified", "effect": "2.805 & 1.151 & 8.104"}
{"structure": "CNC(=O)CN1C(=O)CCC12CCCN(Cc1cccc(F)c1)C2.O=C(O)C(F)(F)F.O=C(O)C(F)(F)F", "stereo": "stereo unspecified", "effect": -2.737}
{"structure": "CC(NC(=O)N(C)Cc1ccsc1)c1ccc2c(c1)CCC(=O)N2", "stereo": "stereo unspecified", "effect": 8.409}
{"structure": "O=C(CCc1ccccc1)N1CC(n2cncn2)C1", "effect": 7.531}
{"structure": "COCc1nc(CN(CC(N)=O)C(C)C)cs1", "effect": 7.92}
{"structure": "Cc1csc2cc(C(=O)NC3CCCC3)cnc12", "effect": -1.104}
{"structure": "Cn1cc(CCC(=O)N2CCN(Cc3ccncc3)CC2)cn1", "effect": -4.579}
{"structure": "c1csc(-c2noc(CN3CCCCC3Cn3cccn3)n2)c1", "stereo": "stereo unspecified", "effect": "24.36 & 19.77 & 16.14"}
{"structure": "CC1(NC(=O)Cc2csc(C(C)(C)C)n2)CCS(=O)(=O)C1", "stereo": "stereo unspecified", "effect": -5.077}
{"structure": "Cc1cc(C)nc(N2CCCC2c2cccnc2)n1", "stereo": "stereo unspecified", "effect": "-26.8 & -28.2"}
{"structure": "c1ccc(CN2CCc3ncnc(-c4cncnc4)c3CC2)nc1", "effect": 11.28}
{"structure": "Cc1ccc(F)cc1C(=O)OCC1CCCN1C(N)=O", "stereo": "stereo unspecified", "effect": -8}
{"structure": "CCc1nc2n(n1)CCCC2NC(=O)Nc1ccc(SC)c(F)c1", "stereo": "stereo unspecified", "effect": -14.79}
{"structure": "CN1CCN(C2CCN(CCOc3cccc(Cl)c3)CC2)C1=O", "effect": -4.359}
{"structure": "CS(=O)(=O)NCC(=O)NCc1cccnc1-n1cnc2ccccc21", "effect": 2.315}
{"structure": "CNc1cc2c(nn1)CCN(C(=O)c1cc(C)no1)C2", "effect": -2.687}
{"structure": "C=C(C)CN1CCN(Cc2cnc(OC)nc2)CC1", "effect": -2.773}
{"structure": "[H][C@]12CCC[C@@]1(COCc1ccccn1)CN(C(=O)C1CCOCC1)C2", "effect": 4.557}
{"structure": "COCCN1CCC1c1cc(NC2CCCC2)nc(C)n1", "stereo": "stereo unspecified", "effect": -3.314}
{"structure": "O=C(O)C(F)(F)F.[H][C@]12CCN(C(=O)c3ccco3)[C@@]1([H])CC[C@H](COCCN1CCCC1)O2", "effect": 2.497}
{"structure": "O=S(=O)(c1ccccc1)N1CCCC(c2nccs2)C1", "stereo": "stereo unspecified", "effect": -0.2185}
{"structure": "c1ccc(CCN2CCCC(c3ccnc4nccn34)C2)cc1", "stereo": "stereo unspecified", "effect": 7.77}
{"structure": "Cn1cnnc1C1CCCN(C(=O)NCCNc2ccccn2)C1", "stereo": "stereo unspecified", "effect": 0}
{"structure": "COc1c(C2CCCN2C(=O)Cc2c(C)noc2C)c(C)nn1C", "stereo": "stereo unspecified", "effect": 2.549}
{"structure": "O=C(O)C(F)(F)F.[H][C@@]12COC[C@]1(CNC(=O)CC1CC1)CN(c1ncccn1)C2", "effect": -3.73}
{"structure": "O=C(O)C1CN(Cc2cccc(-c3ccccn3)c2)CCO1", "stereo": "stereo unspecified", "effect": 5.769}
{"structure": "[H][C@@]12CN(C(=O)N(C)C)C[C@]1([H])C(=O)N(C)C21CCN(C(=O)C(C)C)CC1", "effect": 4.619}
{"structure": "CC(C)(CO)Nc1ccc(-c2nc(-c3ccccc3F)no2)cn1", "effect": "13.89 & 24.65"}
{"structure": "CN(C)C(=O)NC1COC2(CCN(Cc3ccccc3)CC2)C1.O=C(O)C(F)(F)F", "stereo": "stereo unspecified", "effect": "-6.642 & -9.604 & -2.422"}
{"structure": "Cc1n[nH]c(C2CN(Cc3csc(C4CCCCC4)n3)CCO2)n1", "stereo": "stereo unspecified", "effect": -16.09}
{"structure": "Cc1ncc(CN2CCc3nc4cc(C(C)(C)C)nn4c(O)c3C2)n1C", "effect": -0.3875}
{"structure": "O=C(c1cc(C2CC2)on1)N1CC[C@]2(C[C@H](Oc3cccnc3)CO2)C1", "effect": 0.1119}
{"structure": "O=C(NCCN1CCCCC1)c1scnc1Cl", "effect": 0.2445}
{"structure": "CCn1cc(CN2CCCN(C(=O)c3cccn3C)CC2)cn1", "effect": 2.687}

Data taken from ChEMBL document CHEMBL3988442, “University of Dundee, Small-Polar-MMV Screening Library” (2021).